The values that follow come from paper PMC8158299.

The chains behind the UniProt entries cited, without tags or fusion partners. Where a name states a change or a piece, a line headed by the entry shows the natural chain unless it says otherwise.
UniProt P46937: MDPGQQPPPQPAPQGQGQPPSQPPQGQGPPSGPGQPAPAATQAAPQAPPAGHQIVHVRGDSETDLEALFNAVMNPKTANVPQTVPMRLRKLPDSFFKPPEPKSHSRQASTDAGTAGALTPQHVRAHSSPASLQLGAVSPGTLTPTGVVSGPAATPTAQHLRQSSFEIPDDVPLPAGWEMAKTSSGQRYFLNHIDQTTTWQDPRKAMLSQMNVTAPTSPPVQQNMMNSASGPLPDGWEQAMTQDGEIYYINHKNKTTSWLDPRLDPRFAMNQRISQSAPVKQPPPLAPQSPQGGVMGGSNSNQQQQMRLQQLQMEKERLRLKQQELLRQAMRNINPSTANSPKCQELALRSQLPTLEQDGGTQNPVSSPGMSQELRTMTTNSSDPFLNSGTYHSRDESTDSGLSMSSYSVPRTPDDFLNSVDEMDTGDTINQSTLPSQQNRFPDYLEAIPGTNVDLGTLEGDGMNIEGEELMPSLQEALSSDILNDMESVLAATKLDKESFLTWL
UniProt Q13043: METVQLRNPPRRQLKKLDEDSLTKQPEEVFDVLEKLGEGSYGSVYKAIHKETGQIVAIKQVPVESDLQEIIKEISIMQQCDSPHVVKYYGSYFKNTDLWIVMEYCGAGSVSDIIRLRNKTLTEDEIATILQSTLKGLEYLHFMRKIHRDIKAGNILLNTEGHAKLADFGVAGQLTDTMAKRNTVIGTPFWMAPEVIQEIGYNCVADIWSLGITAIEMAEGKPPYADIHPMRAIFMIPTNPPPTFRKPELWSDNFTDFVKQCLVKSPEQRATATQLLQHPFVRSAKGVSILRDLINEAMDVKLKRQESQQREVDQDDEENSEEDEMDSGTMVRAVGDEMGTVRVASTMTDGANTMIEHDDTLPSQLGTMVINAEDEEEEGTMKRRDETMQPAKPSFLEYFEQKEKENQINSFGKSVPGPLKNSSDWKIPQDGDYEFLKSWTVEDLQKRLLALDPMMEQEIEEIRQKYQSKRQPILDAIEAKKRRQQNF
UniProt P67775: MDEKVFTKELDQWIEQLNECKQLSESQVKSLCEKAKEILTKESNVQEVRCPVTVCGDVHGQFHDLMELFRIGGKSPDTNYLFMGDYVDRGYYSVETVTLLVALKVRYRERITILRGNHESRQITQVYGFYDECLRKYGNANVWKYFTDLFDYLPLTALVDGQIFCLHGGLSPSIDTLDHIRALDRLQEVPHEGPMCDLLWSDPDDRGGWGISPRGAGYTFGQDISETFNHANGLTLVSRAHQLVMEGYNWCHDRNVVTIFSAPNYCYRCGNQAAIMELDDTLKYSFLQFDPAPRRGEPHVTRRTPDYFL

The target in assay [1] is Flag-tagged human YAP (human) (UniProt P46937). The assay can be described thus: co-IP; HEK293T transfected with Flag-YAP or empty vector for 36 h; lysate on anti-Flag M2 magnetic beads, eluted with 3X-Flag peptide; western blot for PP2Ac.
Assay [2] deals with phospho-YAP (pYAP), endogenous in HUVECs (human (endogenous in HUVEC)) (UniProt P46937). The assay can be described thus: co-IP; endogenous proteins, HUVEC lysate (mild lysis buffer); anti-pYAP antibody overnight, protein A/G magnetic beads; cells with or without LatB for 2 h.
Assay [3] addresses MST1, endogenous in HUVECs (human (endogenous in HUVEC)) (UniProt Q13043). The assay can be described thus: co-IP; endogenous MST1 and PP2Ac in HUVECs stimulated with 50 ng/mL VEGF for 2 h; the precipitating antibody is not told.

Results are given in words; binding and its absence hold for the method and conditions named. In cells and extracts the contact can be indirect. Binding calls can cover weak binding; strength is not graded here.

With “PP2A catalytic C subunit (PP2Ac), endogenous in HEK293T (from UniProt P67775) (enzyme)”, the binding result in assay [1] was “binds”.
On to “PP2A catalytic C subunit (PP2Ac), endogenous in HUVECs (from UniProt P67775) (enzyme)”, for which the binding result in assay [2] and in assay [3] was “binds” in each case.
